Measured values: patent publication US6936735B2, “Photostable cationic organic sunscreen compounds and compositions obtained therefrom” (EMD Chemicals, Inc., priority 2002, dated 2005)

Key:
[1] = Hair substantivity, product uptake from aqueous solution; conditions: water solution, 1% concentration, 100 ml on 1 g hair
[2] = Hair substantivity, product uptake from aqueous-ethanolic solution; conditions: aqueous-ethanolic solution (30:70%)
[3] = tested at 0.25%, corrected to a 1% solution

Compound	% Relative Product Uptake by Hair, 0 min ([1]; 0 min) [%]	% Relative Product Uptake by Hair, 2 min ([1]; 2 min) [%]	% Relative Product Uptake by Hair, 5 min ([1]; 5 min) [%]	% Relative Product Uptake by Hair, 10 min ([1]; 10 min) [%]	% Relative Product Uptake by Hair, 0 min ([2]; 1% concentration) [%]	% Relative Product Uptake by Hair, 2 min ([2]; 1% concentration) [%]	% Relative Product Uptake by Hair, 5 min ([2]; 1% concentration) [%]	% Relative Product Uptake by Hair, 10 min ([2]; 1% concentration) [%]	% Relative Product Uptake by Hair, 0 min [2, 3] [%]	% Relative Product Uptake by Hair, 2 min [2, 3] [%]	% Relative Product Uptake by Hair, 5 min [2, 3] [%]	% Relative Product Uptake by Hair, 10 min [2, 3] [%]
Bis-N-[3(N,N-dimethylamino)propyl]-3,4,5-trimethoxy benzylidene malonamide bis ethylsulfate [Example 3]	0	48	56	59	0	5	13	18				
CCCCCCCCCCCC[N+](C)(C)CCCNC(=O)c1ccc(N(C)C)cc1.Cc1ccc(S(=O)(=O)[O-])cc1 [Escalol HP ®-610]									0	2	3	3
